Data published in the supplement of paper PMC12889115.
The list shows a part of the results. These are raw signals, not scaled to a control.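 In the initial screen, polymyxin B was used at a concentration that permeabilizes Salmonella's outer membrane but not its inner membrane. Maximum growth was set by DMSO wells with or without polymyxin B. Since plates varied, data were ranked per plate, and compounds giving the lowest OD600 advanced as hits.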

System: Salmonella enterica serovar Typhimurium SL1344
Assay: bacterial growth OD600 after 18 h with compound and polymyxin B; higher = more bacterial growth (less inhibition)
Conditions: 50 µM, Mueller-Hinton broth

| Structure (SMILES) | bacterial growth OD600 (polymyxin B 0.75 µg/mL) | bacterial growth OD600 (polymyxin B 1 µg/mL) |
| --- | --- | --- |
| OCCNc1ccc(-c2nc(-c3cccc(Cl)c3)no2)cn1 | 0.296 |  |
| Cc1cc(C)cc(N2CCN(C(=O)Cn3cc(NC(=O)CCC(=O)c4ccccc4)cn3)CC2=O)c1 | 0.837 |  |
| O=C(NCC1CCCN(C(=O)c2cscn2)C1)c1ccc(-c2ccccc2)cc1 (stereo not given) |  | 0.824 |
| Cc1ccccc1C(=O)Nc1ccnn1C1CCN(C(=O)CCn2ccnc2C)CC1 |  | 0.795 |
| CCOC(=O)C1(Cc2ccc(F)cc2)CCCN(C(=O)CN2CCCCC2=O)C1 (stereo not given) |  | 0.883 |
| CCN(Cc1cc[nH]n1)CC1CCCN(CCc2cccc(OC)c2)C1 (stereo not given) | 0.809 |  |
| CC(c1ccccc1)c1cc(C(=O)NCc2ccccc2Cl)on1 (stereo not given) | 0.002 |  |
| COCc1ccc(C(=O)N2CCCC(C(=O)c3ccc4ccccc4c3)C2)s1 (stereo not given) |  | 0.01 |
| COc1cc(C(=O)NCCCSC)ccc1OC1CCN(C(C)=O)CC1 |  | 0.871 |
| Cc1cc(CN(C)C(=O)CC(c2cccc(O)c2)c2ccccc2Cl)on1 (stereo not given) |  | 0.656 |
| CN1CCC(N(C)C(=O)CCC2CCCN(Cc3cccc(C(F)(F)F)c3)C2)CC1 (stereo not given) |  | 1.04 |
| COc1cccc(CC(=O)NCC2Cc3cc(-c4ccnc(SC)n4)cc(Cl)c3O2)c1 (stereo not given) | 0.74 |  |
| CC(=O)c1ccccc1-c1ccc2c(c1)CC(CNC(=O)Cc1cccc(F)c1)O2 (stereo not given) | 0.793 |  |
| O=C1CCC(CCC(=O)N(CC2CCC2)CC2CCCO2)(Cc2ccc(Cl)cc2)N1 (stereo not given) | 0.863 |  |
| COc1ccc(-c2noc(CN3CCC(OCc4ccccc4)CC3)n2)cc1 |  | 0.948 |
| CSc1ccc(CC2(CCC(=O)NCc3cccc(Cl)c3)CCC(=O)N2)cc1 (stereo not given) | 0.726 |  |
| Cc1c(C(=O)NCC2COc3ccccc3O2)cnn1-c1ncc2c(n1)-c1ccccc1CCC2 (stereo not given) | 0.006 |  |
| CCOC(=O)N1CCN(C(=O)CC2(c3ccccc3OC)CC(=O)N(CCCOC)C2=O)CC1 (stereo not given) | 0.896 |  |
| CCNC(=O)C1CCN(C2CCN(CCCc3ccccc3)CC2)CC1 | 0.833 |  |
| Cc1ccc2c(c1)CN(CC(=O)N1CCC(O)(c3ccccn3)CC1)CC(c1ccsc1)O2 (stereo not given) | 0.861 |  |
| CCOC(=O)N1CCN(C(=O)c2ccc(N3CCC(N[C@H]4CCCCNC4=O)CC3)cc2)CC1 | 0.838 |  |
| Cc1ncc2c(c1CNC(=O)Cc1cccs1)CCN(C(=O)c1ccc(N3CCCC3=O)cc1)C2 | 0.814 |  |
| CCCn1cc([C@@H]2C[C@H]3CN(Cc4cccc(Cl)c4)C(=O)[C@]34CCCN24)c(C)n1 | 0.687 |  |
| COc1ccc(CC(=O)Nc2ccc(N3CCC(NCC(C)(C)CO)CC3)cc2)cc1 | 0.877 |  |
| COC(=O)CN(C)C(=O)CC(c1ccccc1)c1ccc2c(c1)OCO2 (stereo not given) |  | 0.691 |
| CN(Cc1ccccc1)c1ncccc1CNC(=O)C[C@@H]1C[C@@H]2C=C[C@H]1C2 |  | 0.493 |
| O=C1CC(NC2CCCC2)CN1Cc1ccccc1C(F)(F)F (stereo not given) |  | 0.918 |
| COc1ccc(CN2CCc3c(C(=O)NCc4ccccc4OC)c(OC)cc(=O)n3CC2)cc1C | 0.867 |  |
| CN(Cc1ccc2nccnc2c1)C(=O)CC1(c2ccc(-c3ccccc3)cc2)CC(=O)N(C)C1=O (stereo not given) | 0.001 |  |
| O=C(CCc1ccco1)N1CCC(C2CCN(c3ncccn3)CC2)C1 (stereo not given) | 0.824 |  |

Two of the compounds above, with bars between the fields:
Structure (SMILES) | bacterial growth OD600 (polymyxin B 0.75 µg/mL) | bacterial growth OD600 (polymyxin B 1 µg/mL)
O=C1CCC(CCC(=O)N(CC2CCC2)CC2CCCO2)(Cc2ccc(Cl)cc2)N1 (stereo not given) | 0.863 | 
CN(Cc1ccc2nccnc2c1)C(=O)CC1(c2ccc(-c3ccccc3)cc2)CC(=O)N(C)C1=O (stereo not given) | 0.001 | 
